Results are given in words; binding and its absence hold for the method and conditions named. In cells and extracts the contact can be indirect. Some binding calls cover weakened binding; strength is not graded here.
T1: MTR4 (human (endogenous in HEK-293T and HeLa)) (UniProt P42285)
T1 sequence: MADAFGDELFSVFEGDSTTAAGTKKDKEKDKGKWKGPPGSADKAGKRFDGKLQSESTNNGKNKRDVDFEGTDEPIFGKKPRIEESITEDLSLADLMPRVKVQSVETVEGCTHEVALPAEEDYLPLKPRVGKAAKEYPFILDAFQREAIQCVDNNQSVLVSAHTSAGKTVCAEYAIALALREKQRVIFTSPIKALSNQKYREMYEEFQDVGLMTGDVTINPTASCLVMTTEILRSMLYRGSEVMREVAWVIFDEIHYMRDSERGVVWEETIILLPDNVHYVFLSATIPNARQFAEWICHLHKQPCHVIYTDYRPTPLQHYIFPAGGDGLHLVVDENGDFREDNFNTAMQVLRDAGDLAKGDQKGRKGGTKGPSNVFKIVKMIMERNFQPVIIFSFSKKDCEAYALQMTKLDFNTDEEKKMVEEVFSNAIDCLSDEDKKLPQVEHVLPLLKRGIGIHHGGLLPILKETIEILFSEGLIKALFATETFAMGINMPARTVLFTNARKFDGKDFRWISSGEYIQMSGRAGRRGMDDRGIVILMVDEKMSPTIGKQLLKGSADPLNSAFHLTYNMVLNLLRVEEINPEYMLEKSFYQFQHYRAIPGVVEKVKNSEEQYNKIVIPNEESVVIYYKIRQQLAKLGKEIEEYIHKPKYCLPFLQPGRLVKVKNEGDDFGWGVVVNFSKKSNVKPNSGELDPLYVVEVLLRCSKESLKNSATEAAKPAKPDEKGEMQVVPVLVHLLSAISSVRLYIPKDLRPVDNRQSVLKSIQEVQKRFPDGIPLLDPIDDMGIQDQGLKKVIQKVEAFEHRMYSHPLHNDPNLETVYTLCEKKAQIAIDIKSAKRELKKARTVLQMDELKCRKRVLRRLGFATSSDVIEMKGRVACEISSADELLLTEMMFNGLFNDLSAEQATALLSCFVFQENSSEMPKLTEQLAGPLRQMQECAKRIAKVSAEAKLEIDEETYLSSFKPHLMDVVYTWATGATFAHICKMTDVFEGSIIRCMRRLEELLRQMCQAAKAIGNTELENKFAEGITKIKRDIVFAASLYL

The chains behind the UniProt entries cited, without tags or fusion partners.
UniProt Q9BWT3: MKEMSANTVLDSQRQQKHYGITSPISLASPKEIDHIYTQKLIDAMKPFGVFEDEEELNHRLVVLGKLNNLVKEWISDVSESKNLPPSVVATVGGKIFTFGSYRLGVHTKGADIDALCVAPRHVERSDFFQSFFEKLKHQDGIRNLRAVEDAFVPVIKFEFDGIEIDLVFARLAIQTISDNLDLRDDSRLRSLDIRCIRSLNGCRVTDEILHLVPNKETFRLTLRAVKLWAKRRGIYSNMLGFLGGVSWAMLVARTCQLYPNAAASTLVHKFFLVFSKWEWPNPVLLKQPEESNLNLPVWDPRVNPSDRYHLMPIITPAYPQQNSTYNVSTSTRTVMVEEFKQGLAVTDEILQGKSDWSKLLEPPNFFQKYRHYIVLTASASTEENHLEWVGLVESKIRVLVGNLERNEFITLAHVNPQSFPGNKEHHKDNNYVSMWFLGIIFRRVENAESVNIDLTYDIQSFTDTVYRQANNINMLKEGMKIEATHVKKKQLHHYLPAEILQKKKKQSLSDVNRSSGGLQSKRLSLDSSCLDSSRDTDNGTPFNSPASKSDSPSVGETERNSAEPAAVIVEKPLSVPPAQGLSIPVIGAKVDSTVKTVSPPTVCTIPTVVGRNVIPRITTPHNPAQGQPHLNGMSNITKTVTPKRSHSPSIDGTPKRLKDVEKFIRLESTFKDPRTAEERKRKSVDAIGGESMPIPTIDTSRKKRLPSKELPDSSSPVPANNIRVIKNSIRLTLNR
UniProt O60293: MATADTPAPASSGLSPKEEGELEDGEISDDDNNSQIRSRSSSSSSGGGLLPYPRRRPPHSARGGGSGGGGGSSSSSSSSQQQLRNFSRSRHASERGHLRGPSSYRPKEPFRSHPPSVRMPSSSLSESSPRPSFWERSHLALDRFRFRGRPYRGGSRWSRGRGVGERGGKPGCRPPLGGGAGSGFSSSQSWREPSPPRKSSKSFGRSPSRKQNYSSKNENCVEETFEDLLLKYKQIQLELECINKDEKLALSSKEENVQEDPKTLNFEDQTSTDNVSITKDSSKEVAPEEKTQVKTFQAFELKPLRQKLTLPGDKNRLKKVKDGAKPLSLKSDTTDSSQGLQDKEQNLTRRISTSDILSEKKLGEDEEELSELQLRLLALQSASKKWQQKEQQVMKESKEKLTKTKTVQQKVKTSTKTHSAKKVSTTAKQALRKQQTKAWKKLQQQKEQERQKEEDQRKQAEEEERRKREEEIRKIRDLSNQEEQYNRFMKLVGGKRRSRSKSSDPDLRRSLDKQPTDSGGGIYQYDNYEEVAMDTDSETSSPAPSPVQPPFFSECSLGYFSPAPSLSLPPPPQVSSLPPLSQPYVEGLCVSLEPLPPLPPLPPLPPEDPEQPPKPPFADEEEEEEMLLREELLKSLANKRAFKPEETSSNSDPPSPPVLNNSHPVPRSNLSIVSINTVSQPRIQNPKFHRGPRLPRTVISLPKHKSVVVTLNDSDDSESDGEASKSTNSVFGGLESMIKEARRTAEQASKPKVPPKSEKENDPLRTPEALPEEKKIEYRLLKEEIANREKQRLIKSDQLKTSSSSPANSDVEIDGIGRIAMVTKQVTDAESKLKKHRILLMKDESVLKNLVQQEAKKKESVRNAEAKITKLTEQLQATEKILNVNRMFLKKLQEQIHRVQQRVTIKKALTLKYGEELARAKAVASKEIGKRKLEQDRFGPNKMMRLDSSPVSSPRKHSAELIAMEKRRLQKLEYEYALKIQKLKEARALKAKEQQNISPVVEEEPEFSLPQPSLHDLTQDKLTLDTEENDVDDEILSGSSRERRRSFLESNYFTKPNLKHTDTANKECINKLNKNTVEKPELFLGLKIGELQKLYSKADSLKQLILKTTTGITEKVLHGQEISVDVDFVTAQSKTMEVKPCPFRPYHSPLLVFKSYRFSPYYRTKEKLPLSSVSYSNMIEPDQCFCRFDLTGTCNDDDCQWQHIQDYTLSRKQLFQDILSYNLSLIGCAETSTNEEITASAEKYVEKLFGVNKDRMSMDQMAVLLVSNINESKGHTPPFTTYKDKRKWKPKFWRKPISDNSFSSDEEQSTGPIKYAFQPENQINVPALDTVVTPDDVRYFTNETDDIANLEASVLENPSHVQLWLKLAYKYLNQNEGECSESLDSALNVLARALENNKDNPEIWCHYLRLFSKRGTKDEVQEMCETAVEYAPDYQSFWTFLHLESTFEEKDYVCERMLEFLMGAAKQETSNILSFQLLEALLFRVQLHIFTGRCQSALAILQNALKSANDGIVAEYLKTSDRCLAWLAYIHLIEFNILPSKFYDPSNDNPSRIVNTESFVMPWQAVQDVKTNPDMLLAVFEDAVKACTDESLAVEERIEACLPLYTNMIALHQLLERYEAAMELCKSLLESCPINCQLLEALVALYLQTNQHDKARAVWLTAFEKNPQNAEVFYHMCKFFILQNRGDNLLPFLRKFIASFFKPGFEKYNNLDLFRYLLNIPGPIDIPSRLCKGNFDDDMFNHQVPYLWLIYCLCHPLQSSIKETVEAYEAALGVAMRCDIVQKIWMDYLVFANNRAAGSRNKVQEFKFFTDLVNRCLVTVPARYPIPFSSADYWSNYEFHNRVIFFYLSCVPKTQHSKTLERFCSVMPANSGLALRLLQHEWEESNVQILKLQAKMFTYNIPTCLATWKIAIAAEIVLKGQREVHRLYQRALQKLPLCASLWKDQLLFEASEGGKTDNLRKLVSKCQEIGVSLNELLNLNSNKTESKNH

B1: PABPN1 (protein, UniProt Q86U42 1-306)
chain: MAAAAAAAAAAGAAGGRGSGPGRRRHLVPGAGGEAGEGAPGGAGDYGNGLESEELEPEELLLEPEPEPEPEEEPPRPRAPPGAPGPGPGSGAPGSQEEEEEPGLVEGDPGDGAIEDPELEAIKARVREMEEEAEKLKELQNEVEKQMNMSPPPGNAGPVIMSIEEKMEADARSIYVGNVDYGATAEELEAHFHGCGSVNRVTILCDKFSGHPKGFAYIEFSDKESVRTSLALDESLFRGRQIKVIPKRTNRPGISTTDRGFPRARYRARTTNYNSSRSRFYSGFNSRPRGRVYRGRARATSWYSPY

Experiments:
[1] = molecular target: polyA polymerase gamma (PAPγ) (human (endogenous in HEK-293T and HeLa)) (UniProt Q9BWT3); experiment: co-IP; endogenous proteins; HeLa nuclear extracts treated with micrococcal nuclease; 50 mM tris pH 7.6, 150 mM NaCl, 1% NP-40; 2 μg antibody overnight at 4 °C, Protein A Dynabeads; IgG control; immunoblot
[2] = molecular target: polyA polymerase gamma (PAPγ) (human (endogenous in HEK-293T and HeLa)) (UniProt Q9BWT3); experiment: co-IP; as the co-IP from HeLa nuclear extracts, immunoprecipitates incubated with RNAse A/T cocktail (1.2 μL/mL of immunoprecipitation buffer) for 30 min at RT, followed by 5 washes
[3] = molecular target: T1, MTR4 (human (endogenous in HEK-293T and HeLa)); experiment: co-IP; HeLa cell lysates in RIP buffer (20 mM HEPES pH 7.5, 150 mM NaCl, 2.5 mM MgCl2, 250 mM sucrose, 0.05% NP-40, 0.5% Triton X-100, RNasin); 2 μg antibody overnight at 4 °C, Dynabeads Protein A; immunoprecipitates of the RIP experiment
[4] = molecular target: ZFC3H1 (human (endogenous in HeLa)) (UniProt O60293); experiment: condition: only with RNAse A/T cocktail (1.2 μL/mL of immunoprecipitation buffer); co-IP; as the co-IP from HeLa nuclear extracts, immunoprecipitates incubated with RNAse A/T cocktail (1.2 μL/mL of immunoprecipitation buffer) for 30 min at RT, followed by 5 washes
[5] = molecular target: polyA polymerase gamma (PAPγ) (human (endogenous in HEK-293T and HeLa)) (UniProt Q9BWT3); experiment: as above

Row | Molecule | binding [1] | binding [2] | binding [3] | binding [4] | binding [5]
1 | ZFC3H1 (from UniProt O60293 1-1989) | binds | binds | binds |  | 
2 | B1 | binds |  |  | no binding | no binding
